{"sequences": {"note": "Amino acid sequences for entries named in this document (tags omitted).", "UniProt P25098": "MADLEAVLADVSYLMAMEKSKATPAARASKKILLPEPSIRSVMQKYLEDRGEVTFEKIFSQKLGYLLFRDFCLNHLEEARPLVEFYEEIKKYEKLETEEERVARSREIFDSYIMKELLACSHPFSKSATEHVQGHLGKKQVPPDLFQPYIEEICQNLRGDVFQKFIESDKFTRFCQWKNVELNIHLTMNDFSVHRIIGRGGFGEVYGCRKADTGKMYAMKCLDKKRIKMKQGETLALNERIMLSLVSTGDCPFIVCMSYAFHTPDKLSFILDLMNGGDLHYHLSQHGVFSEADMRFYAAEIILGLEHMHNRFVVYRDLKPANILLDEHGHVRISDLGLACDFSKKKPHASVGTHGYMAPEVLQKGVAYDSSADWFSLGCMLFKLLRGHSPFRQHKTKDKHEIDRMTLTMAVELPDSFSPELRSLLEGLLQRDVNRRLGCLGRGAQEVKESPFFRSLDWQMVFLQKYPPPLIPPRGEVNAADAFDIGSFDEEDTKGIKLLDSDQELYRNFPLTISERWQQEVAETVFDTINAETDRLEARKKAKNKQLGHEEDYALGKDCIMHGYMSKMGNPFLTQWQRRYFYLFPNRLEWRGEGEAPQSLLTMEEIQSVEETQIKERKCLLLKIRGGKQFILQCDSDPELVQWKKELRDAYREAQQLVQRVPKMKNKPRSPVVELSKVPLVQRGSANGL", "UniProt Q8TCU6": "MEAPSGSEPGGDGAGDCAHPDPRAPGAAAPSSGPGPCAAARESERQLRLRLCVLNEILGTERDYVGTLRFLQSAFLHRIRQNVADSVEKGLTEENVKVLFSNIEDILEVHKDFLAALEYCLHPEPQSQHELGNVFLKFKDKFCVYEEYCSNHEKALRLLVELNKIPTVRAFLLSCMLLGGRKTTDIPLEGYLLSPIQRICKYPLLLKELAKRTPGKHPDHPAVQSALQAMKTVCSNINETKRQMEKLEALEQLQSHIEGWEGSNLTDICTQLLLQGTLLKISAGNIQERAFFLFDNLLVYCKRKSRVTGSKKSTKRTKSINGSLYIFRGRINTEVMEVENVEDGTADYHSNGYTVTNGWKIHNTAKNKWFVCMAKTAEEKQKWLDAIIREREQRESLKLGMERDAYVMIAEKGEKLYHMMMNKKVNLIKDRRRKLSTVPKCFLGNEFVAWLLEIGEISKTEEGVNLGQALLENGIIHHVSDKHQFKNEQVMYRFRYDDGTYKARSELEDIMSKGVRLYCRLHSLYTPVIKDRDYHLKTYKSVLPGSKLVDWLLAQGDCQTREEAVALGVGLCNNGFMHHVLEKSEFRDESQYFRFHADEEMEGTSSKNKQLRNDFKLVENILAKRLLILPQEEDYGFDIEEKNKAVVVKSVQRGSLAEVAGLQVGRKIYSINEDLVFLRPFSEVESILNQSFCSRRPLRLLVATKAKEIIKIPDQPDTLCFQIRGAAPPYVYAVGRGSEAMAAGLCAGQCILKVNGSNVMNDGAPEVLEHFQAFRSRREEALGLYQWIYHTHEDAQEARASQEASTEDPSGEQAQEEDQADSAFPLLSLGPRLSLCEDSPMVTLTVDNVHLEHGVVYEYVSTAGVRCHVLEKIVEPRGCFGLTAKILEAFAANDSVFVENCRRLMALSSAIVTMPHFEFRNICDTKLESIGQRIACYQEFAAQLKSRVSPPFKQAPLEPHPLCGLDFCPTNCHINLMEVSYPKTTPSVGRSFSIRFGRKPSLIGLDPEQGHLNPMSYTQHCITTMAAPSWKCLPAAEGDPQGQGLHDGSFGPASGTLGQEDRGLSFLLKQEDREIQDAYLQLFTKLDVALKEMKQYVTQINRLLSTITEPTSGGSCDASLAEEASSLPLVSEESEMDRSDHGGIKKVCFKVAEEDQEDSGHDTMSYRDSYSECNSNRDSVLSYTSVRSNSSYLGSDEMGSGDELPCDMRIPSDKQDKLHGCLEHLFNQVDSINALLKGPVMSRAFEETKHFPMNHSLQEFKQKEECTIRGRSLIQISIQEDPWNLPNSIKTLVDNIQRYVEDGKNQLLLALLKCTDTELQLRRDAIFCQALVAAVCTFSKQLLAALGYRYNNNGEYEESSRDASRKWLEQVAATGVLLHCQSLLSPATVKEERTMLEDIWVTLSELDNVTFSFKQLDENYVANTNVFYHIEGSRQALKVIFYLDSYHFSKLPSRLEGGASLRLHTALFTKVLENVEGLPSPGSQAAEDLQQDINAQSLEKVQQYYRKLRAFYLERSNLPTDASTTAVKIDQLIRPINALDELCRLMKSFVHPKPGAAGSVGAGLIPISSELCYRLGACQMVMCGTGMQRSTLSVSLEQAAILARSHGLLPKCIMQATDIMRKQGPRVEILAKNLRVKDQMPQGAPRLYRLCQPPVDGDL"}, "source": "paper doi:10.1101/2025.04.14.648762", "target": "flag-Grk2 (UniProt P25098)", "experiment": "co-IP", "note": "Results are given in words; binding and its absence hold for the method and conditions named. Binding seen in cells or lysates may run through a third protein. Some entries that bind do so weakly or less than the wild type.", "data": [{"substance": "myc-P-Rex1 (from UniProt Q8TCU6 1-1659)", "values": [{"measurement": "binding", "result": "binds"}]}]}
